Test results: the supplement of paper PMC12823440, “Inhibitors supercharge kinase turnover through native proteolytic circuits” (Nature, 2025)
Structures can show the parent of a compound that is named as a salt. This is one part of the list. The calls rarely recur for the same compound in another form.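 Kinases were expressed as nanoluciferase fusions in K562 cells and luminescence was read every 4 h between 2 and 18 h as percent of control, DMSO set to 100% and a positive control to 0%. A time point counts as decreased when the signal drops significantly (2 sigma). The hit call is the authors' own, does not follow from the count of time points alone, and its rule is not shown.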

By UniProt entry, the sequences of proteins in these tests, tags left out. Where a name states a change or a piece, a line headed by the entry shows the natural chain unless it says otherwise.
UniProt Q8IWU2: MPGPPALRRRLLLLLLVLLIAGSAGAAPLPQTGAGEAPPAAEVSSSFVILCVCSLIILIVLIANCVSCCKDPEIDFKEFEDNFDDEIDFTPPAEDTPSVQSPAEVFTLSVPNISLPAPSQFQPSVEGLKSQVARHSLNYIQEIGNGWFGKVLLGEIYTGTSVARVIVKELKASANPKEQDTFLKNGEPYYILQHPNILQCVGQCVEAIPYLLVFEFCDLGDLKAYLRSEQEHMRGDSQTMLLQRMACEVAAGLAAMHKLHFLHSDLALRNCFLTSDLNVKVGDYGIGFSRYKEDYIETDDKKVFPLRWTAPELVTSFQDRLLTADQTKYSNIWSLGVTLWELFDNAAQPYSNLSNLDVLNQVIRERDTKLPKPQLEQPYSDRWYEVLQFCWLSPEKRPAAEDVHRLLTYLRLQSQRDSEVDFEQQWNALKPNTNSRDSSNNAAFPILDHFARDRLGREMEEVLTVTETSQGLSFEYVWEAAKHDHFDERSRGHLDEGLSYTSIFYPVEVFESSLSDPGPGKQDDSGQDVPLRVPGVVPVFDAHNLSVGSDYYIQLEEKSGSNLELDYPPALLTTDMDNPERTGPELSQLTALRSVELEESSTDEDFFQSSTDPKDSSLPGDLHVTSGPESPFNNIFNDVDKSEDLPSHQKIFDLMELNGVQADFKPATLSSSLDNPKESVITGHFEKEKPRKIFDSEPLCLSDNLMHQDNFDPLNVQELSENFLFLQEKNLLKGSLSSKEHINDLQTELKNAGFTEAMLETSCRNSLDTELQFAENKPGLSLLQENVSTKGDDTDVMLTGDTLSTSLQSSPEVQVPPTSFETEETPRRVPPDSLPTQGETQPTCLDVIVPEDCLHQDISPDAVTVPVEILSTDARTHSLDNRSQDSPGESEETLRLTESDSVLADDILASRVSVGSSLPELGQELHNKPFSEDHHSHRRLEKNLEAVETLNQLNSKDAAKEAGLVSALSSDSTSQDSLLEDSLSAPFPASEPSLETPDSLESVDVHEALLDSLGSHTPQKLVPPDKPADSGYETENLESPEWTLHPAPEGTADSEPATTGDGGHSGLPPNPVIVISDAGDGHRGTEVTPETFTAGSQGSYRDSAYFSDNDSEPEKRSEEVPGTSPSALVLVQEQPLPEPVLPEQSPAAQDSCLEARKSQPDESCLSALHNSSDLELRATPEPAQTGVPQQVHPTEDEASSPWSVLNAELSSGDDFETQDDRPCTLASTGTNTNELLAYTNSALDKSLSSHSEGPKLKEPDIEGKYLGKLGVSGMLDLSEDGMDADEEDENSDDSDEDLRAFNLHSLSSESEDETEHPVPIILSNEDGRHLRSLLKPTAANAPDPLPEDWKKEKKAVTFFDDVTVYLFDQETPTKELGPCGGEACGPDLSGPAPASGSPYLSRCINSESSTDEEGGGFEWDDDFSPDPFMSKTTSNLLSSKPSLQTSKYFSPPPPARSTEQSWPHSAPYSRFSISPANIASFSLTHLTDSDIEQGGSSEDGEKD
UniProt P07948: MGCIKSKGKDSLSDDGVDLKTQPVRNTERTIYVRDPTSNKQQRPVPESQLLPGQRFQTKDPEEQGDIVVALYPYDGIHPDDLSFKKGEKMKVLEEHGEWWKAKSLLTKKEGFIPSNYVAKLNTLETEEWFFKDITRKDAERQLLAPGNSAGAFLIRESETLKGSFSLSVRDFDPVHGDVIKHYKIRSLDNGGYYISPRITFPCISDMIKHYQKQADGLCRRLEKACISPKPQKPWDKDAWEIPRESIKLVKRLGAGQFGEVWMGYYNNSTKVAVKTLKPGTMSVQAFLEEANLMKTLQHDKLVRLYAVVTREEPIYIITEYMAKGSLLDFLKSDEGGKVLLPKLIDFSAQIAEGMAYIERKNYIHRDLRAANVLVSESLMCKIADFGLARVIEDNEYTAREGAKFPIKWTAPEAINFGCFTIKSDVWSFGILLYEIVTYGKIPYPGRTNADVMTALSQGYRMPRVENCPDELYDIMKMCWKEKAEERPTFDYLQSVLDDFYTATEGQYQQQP
UniProt Q12851: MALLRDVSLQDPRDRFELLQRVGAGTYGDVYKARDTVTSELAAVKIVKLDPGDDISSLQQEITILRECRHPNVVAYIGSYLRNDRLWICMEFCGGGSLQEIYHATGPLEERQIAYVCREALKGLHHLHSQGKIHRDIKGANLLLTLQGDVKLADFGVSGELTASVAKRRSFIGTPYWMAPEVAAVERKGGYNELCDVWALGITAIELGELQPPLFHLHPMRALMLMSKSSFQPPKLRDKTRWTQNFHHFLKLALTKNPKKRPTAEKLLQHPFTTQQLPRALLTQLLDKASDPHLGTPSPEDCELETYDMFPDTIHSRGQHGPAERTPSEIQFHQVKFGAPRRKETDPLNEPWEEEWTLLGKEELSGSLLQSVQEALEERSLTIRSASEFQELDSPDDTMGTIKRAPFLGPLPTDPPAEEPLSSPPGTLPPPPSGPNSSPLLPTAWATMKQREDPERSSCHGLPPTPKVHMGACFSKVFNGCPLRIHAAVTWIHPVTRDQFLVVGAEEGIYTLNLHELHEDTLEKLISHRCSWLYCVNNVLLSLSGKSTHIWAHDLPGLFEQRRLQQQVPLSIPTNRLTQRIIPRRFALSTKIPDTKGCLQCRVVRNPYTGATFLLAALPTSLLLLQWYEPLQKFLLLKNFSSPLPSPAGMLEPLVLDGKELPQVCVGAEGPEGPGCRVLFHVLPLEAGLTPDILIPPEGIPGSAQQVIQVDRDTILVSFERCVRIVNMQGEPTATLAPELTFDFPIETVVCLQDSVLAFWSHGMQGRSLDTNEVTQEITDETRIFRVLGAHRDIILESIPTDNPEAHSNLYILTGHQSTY
UniProt P28482, whole entry: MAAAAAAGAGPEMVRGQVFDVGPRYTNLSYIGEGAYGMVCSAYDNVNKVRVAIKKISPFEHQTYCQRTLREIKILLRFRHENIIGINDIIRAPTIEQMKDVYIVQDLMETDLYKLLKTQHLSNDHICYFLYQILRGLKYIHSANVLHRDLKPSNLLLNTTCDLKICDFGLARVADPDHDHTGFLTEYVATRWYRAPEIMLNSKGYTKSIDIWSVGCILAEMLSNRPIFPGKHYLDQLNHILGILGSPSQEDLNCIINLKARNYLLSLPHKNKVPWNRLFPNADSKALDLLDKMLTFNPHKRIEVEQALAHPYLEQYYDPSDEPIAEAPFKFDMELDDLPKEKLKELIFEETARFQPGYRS
UniProt P31152, whole entry: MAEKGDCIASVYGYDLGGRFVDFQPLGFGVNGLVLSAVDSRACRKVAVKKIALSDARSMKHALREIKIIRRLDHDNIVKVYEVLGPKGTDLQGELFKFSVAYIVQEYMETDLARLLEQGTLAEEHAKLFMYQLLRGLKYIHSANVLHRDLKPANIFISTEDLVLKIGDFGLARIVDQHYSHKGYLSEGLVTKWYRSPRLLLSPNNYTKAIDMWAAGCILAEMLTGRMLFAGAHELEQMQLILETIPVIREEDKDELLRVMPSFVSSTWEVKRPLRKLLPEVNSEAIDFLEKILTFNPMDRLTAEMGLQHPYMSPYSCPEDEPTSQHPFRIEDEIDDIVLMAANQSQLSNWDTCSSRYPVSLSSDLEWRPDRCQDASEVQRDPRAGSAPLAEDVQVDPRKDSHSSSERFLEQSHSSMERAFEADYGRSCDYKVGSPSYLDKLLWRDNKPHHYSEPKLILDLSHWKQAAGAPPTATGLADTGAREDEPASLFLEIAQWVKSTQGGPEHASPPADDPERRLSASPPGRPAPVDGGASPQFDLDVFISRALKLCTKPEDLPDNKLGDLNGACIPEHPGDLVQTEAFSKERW
UniProt P49137, whole entry, looked up: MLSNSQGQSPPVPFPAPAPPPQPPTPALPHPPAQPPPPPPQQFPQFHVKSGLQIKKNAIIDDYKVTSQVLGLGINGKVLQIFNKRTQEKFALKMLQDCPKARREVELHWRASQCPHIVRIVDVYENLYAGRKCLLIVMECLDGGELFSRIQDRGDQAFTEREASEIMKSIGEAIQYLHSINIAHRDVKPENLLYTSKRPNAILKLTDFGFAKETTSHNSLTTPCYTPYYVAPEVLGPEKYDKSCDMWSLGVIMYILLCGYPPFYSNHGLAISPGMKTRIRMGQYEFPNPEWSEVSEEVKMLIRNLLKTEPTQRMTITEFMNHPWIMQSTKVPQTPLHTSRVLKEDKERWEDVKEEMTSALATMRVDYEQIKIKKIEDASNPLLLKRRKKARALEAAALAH
UniProt Q9BUB5: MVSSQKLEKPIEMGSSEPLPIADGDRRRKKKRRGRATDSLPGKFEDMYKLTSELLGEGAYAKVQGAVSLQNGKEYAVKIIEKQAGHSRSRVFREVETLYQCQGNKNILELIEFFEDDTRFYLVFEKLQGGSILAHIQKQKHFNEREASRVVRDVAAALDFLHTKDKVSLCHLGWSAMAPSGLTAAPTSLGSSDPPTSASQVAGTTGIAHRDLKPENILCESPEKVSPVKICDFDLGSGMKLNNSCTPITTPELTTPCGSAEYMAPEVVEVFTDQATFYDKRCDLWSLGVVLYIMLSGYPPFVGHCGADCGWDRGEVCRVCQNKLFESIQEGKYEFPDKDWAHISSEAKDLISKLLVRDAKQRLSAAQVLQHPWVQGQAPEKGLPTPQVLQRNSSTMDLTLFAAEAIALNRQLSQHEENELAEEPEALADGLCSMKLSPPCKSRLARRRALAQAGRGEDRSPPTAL
UniProt Q16620, whole entry, looked up: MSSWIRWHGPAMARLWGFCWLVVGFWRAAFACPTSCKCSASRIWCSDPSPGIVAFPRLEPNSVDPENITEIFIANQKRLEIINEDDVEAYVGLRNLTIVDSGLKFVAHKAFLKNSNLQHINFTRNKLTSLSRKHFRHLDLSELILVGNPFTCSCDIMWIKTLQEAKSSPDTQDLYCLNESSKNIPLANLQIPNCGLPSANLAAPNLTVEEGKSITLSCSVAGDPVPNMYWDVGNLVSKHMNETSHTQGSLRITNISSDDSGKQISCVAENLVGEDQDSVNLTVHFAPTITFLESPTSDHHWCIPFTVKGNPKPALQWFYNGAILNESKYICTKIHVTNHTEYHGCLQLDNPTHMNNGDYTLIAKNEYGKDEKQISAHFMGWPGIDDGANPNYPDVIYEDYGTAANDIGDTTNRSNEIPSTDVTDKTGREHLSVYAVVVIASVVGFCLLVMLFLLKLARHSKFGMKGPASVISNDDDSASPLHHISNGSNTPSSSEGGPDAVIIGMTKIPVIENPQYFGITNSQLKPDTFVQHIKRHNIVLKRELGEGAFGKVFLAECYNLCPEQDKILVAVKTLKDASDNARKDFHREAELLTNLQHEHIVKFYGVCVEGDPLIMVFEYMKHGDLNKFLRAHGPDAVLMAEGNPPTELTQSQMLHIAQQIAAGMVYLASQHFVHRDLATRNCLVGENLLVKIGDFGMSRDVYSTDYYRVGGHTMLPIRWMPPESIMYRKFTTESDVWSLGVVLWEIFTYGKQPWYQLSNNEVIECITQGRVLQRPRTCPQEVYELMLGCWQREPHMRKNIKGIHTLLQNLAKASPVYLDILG

What was measured:
Experiment in all cases: number of time points (of 5) at which kinase-Nluc abundance scored as decreased, DMSO-normalised (count); higher = more persistent destabilization
Conditions in all cases: K562; 2-18 h
LMTK2 = LMTK2 (UniProt Q8IWU2)
LYN = LYN (UniProt P07948)
MAP2K1 = MAP2K1 (UniProt Q02750)
MAP2K2 = MAP2K2 (UniProt P36507)
MAP4K2 = MAP4K2 (UniProt Q12851)
MAPK1 = MAPK1 (UniProt P28482)
MAPK4 = MAPK4 (UniProt P31152)
MAPKAPK2 = MAPKAPK2 (UniProt P49137)
MKNK1 = MKNK1 (UniProt Q9BUB5)
NTRK2 = NTRK2 (UniProt Q16620)

Structure (SMILES) | number of time points (LMTK2) | number of time points (LYN) | number of time points (MAP2K1) | number of time points (MAP2K2) | number of time points (MAP4K2) | number of time points (MAPK1) | number of time points (MAPK4) | number of time points (MAPKAPK2) | number of time points (MKNK1) | number of time points (NTRK2)
C[C@@H]1CCc2ncc(F)cc2[C@H]2CCCN2c2ccn3ncc(c3n2)C(=O)N1 [Selitrectinib] (10 µM) | 0 | 0 | 0 | 0 | 0 | 0 | 0 | 0 | 0 | 0
O=C1NC(=O)C(=Cc2ccc3c(c2)OCO3)S1 (10 µM) | 0 | 0 | 0 | 0 | 0 | 0 | 0 | 0 | 0 | 0
CC(CCc1ccccn1)(CCc1ccccn1)C(=O)c1ccccc1 (10 µM) | 0 | 0 | 0 | 0 | 0 | 0 | 0 | 0 | 0 | 0
Nc1[nH]c(=O)nc2c1ncn2[C@@H]1O[C@H](CO)[C@@H](O)[C@H]1O [Crotonoside] (10 µM) | 0 | 0 | 0 | 0 | 0 | 0 | 0 | 0 | 0 | 0
CN(C)c1ncnc2nc[nH]c12 [6-(Dimethylamino)purine] (10 µM) | 0 | 0 | 0 | 0 | 0 | 0 | 0 | 0 | 0 | 0
OCCN(CCO)c1ccc(C(c2ccc(Cl)cc2)c2ccc(N(CCO)CCO)cc2)cc1 (10 µM) | 0 | 0 | 0 | 2 | 0 | 3 | 0 | 0 | 3 | 2
CCCCCCCC/C=C\CCCCCCCC(=O)NCC(=O)O [N-Oleoyl glycine] (10 µM) | 0 | 0 | 0 | 0 | 0 | 0 | 0 | 0 | 0 | 0
COc1cc(N2CCC(O)CC2)ccc1Nc1cc(Nc2ccccc2S(=O)(=O)C(C)C)c2cc[nH]c2n1 (10 µM) | 0 | 0 | 0 | 0 | 0 | 0 | 0 | 0 | 0 | 0
Cc1ccc(-c2ccc3c(ccc4sc5c(c43)NC[C@@H](C)NC5=O)n2)cn1 (10 µM) | 0 | 0 | 0 | 0 | 0 | 0 | 0 | 0 | 0 | 0
CC(C)Oc1ccc(-c2cnc3c(-c4ccnc5ccccc45)cnn3c2)cc1 (10 µM) | 0 | 0 | 0 | 0 | 0 | 0 | 0 | 0 | 0 | 0
CC(C)(C)C(=O)N1N=CC[C@H]1c1ccccc1 (10 µM) | 0 | 0 | 0 | 0 | 0 | 0 | 0 | 0 | 0 | 0
CCCCNC(=N)NC(=N)N [Buformin (hydrochloride)] (2.5 µM) | 0 | 0 | 0 | 0 | 0 | 0 | 0 | 0 | 0 | 0
CCN1C(=O)CNc2ncc(-c3ccc(-c4nc[nH]n4)nc3C)nc21 [CC-115 (hydrochloride)] (2.5 µM) | 1 | 2 | 0 | 0 | 0 | 0 | 0 | 0 | 4 | 3
O=C(CO)N1CCC(c2n[nH]c(-c3ccc(Cl)cc3)c2-c2ccncn2)CC1 (10 µM) | 0 | 0 | 0 | 0 | 0 | 0 | 0 | 0 | 0 | 0
Nc1ncc(-c2ccc(C(=O)N3CCNCC3)cc2)nc1-c1ccc(C(F)(F)F)cc1 (10 µM) | 0 | 0 | 0 | 0 | 0 | 0 | 0 | 0 | 0 | 0
COc1cc(-c2cc(-c3cc(OC)c(OC)c(OC)c3)cc(C(F)P(=O)(OCOC(=O)C(C)(C)C)OCOC(=O)C(C)(C)C)c2)cc(OC)c1OC (stereo not given) [Stafia-1-dipivaloyloxymethyl ester] (2.5 µM) | 0 | 0 | 0 | 0 | 0 | 0 | 0 | 0 | 0 | 0
Cc1ccc(-c2nn(C(C)(C)CNC(=O)c3ccncc3)c3ncnc(N)c23)cc1 (2.5 µM) | 0 | 0 | 0 | 0 | 0 | 0 | 0 | 0 | 0 | 0

Pulled by structure from the entries so far, 2 records:
Structure (SMILES) | number of time points (LMTK2) | number of time points (LYN) | number of time points (MAP2K1) | number of time points (MAP2K2) | number of time points (MAP4K2) | number of time points (MAPK1) | number of time points (MAPK4) | number of time points (MAPKAPK2) | number of time points (MKNK1) | number of time points (NTRK2)
COc1cc(-c2cc(-c3cc(OC)c(OC)c(OC)c3)cc(C(F)P(=O)(OCOC(=O)C(C)(C)C)OCOC(=O)C(C)(C)C)c2)cc(OC)c1OC (stereo not given) [Stafia-1-dipivaloyloxymethyl ester] (2.5 µM) | 0 | 0 | 0 | 0 | 0 | 0 | 0 | 0 | 0 | 0
Cc1ccc(-c2ccc3c(ccc4sc5c(c43)NC[C@@H](C)NC5=O)n2)cn1 (10 µM) | 0 | 0 | 0 | 0 | 0 | 0 | 0 | 0 | 0 | 0
